# Assay results: the supplement of paper PMC8728848
# The other results are listed elsewhere or left out.
# B1: CcfD (Bacteroides fragilis), Q5L9G4 (protein)
# chain: MKKQNSIYTLLIALLCFVSSCDYLGVSDQLAGGLQNTEQVFDNVSYTKRWYANVFAGIPDYSGINSVNVGAFKNPWTGMCDELVVGYGNSSKYNNSDRNAANMGFHRYGDCYKYIRQANIFLQKAHPIMTTGTQGDQLLEDELTQMKANVRFMRAFYHYLLFEQYGPIILVKDKIYNATEDQDVPRNTVDEVIEYIDSELTAVASELTQEPIFEDKDYRAWPTKGVALAVRAKLWLYAASPLLNGGYREALSVTNPDGTRLFPDYDAGKWEKALAACKDFIDYAEAGRYELYKEYKDDNGAVIDPDKSVYNLFQKYTHEIIWATANNDWGGMNGDAFDRRIAPRCEKNGLGSTGVTQELVDAFYMKDGFPVSATAYLPQSTLYQEEGYGTYKDQNDNFSKKYTNVTVSNRYLNREPRFYNTVFFNGRQWPVSCNQVLFYNGGNSGVQEGQATLTGYMLFKRFNRSVSLTNPGVASQFRPSIIFRLADFYLMYAEAANEVNPNDARVLKYLNLVRERAGLPDIETLNPAIRGNQELQRAAIQRERQIELATEGQRYFDVRRWMIADKNGEGRQNGYVHGMNVRGESNDKEDFNRIVEASQIVFNRKMYLYPMPDSEMRKTKNLVQNPGW
# Legend:
# Test in all cases: glycan array binding signal (z-score within array); higher = stronger binding
# Conditions in all cases: glycan notation: IUPAC condensed, linker removed
# [1] = target: GlcNAc(b1-3)Gal(b1-4)GlcNAc(b1-3)Gal(b1-4)GlcNAc(b1-3)Gal(b1-4)GlcNAc(b1-3)Gal(b1-4)GlcNAc(b1-2)[GlcNAc(b1-3)Gal(b1-4)GlcNAc(b1-3)Gal(b1-4)GlcNAc(b1-3)Gal(b1-4)GlcNAc(b1-3)Gal(b1-4)GlcNAc(b1-6)]Man(a1-6)[GlcNAc(b1-3)Gal(b1-4)GlcNAc(b1-3)Gal(b1-4)GlcNAc(b1-3)Gal(b1-4)GlcNAc(b1-3)Gal(b1-4)GlcNAc(b1-2)Man(a1-3)]Man(b1-4)GlcNAc(b1-4)[Fuc(a1-6)]GlcNAc
# How it was run: (§1)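 Negative Z-scores can be read as non-binding. The Z-score is calculated within each array and then averaged across arrays of one protein sequence at different concentrations or buffers and across linkers. Arrays, 3228 in all, were curated from the Consortium for Functional Glycomics database and kept only where the protein sequence was available.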
# [2] = target: GlcNAc(b1-3)Gal(b1-4)GlcNAc(b1-3)Gal(b1-4)GlcNAc(b1-3)GalNAc
# How it was run: as §1
# [3] = target: GlcNAc(b1-3)Gal(b1-4)GlcNAc(b1-3)GalNAc
# How it was run: as §1
# [4] = target: GlcNAc(b1-3)Gal(b1-4)GlcNAc(b1-3)[GlcNAc(b1-3)Gal(b1-4)GlcNAc(b1-3)]GalNAc
# How it was run: as §1
# [5] = target: GlcNAc(b1-3)Gal(b1-4)GlcNAc(b1-6)[Gal(b1-3)]GalNAc
# How it was run: as §1
# [6] = target: GlcNAc(b1-3)Gal(b1-4)GlcNAc(b1-6)[GlcNAc(b1-3)Gal(b1-3)]GalNAc
# How it was run: as §1
# [7] = target: GlcNAc(b1-3)Gal(b1-4)GlcNAc(b1-6)[GlcNAc(b1-3)]Gal(b1-4)GlcNAc
# How it was run: as §1
# GlcNAc(b1-3)GalNAc = target: GlcNAc(b1-3)GalNAc
# How it was run: as §1
# GlcNAc(b1-3)Man = target: GlcNAc(b1-3)Man
# How it was run: as §1
# [8] = target: GlcNAc(b1-3)[GlcNAc(b1-4)][GlcNAc(b1-6)]GlcNAc
# How it was run: as §1
# [9] = target: GlcNAc(b1-3)[GlcNAc(b1-6)]Gal(b1-4)GlcNAc
# How it was run: as §1
# [10] = target: GlcNAc(b1-3)[GlcNAc(b1-6)]GalNAc
# How it was run: as §1
# [11] = target: GlcNAc(b1-4)Gal(b1-4)GlcNAc
# How it was run: as §1
# GlcNAc(b1-4)GlcNAc = target: GlcNAc(b1-4)GlcNAc
# How it was run: as §1
# [12] = target: GlcNAc(b1-4)GlcNAc(b1-4)GlcNAc
# How it was run: as §1
# [13] = target: GlcNAc(b1-4)GlcNAc(b1-4)GlcNAc(b1-4)GlcNAc(b1-4)GlcNAc
# How it was run: as §1
# [14] = target: GlcNAc(b1-4)GlcNAc(b1-4)GlcNAc(b1-4)GlcNAc(b1-4)GlcNAc(b1-4)GlcNAc
# How it was run: as §1
# [15] = target: GlcNAc(b1-4)[GlcNAc(b1-6)]GalNAc
# How it was run: as §1
# [16] = target: GlcNAc(b1-6)Gal(b1-4)GlcNAc
# How it was run: as §1
# GlcNAc(b1-6)GalNAc = target: GlcNAc(b1-6)GalNAc
# How it was run: as §1
# [17] = target: GlcNAc6S(b1-3)Gal(b1-4)GlcNAc
# How it was run: as §1
# Kdn(a2-3)Gal(b1-3)GalNAc = target: Kdn(a2-3)Gal(b1-3)GalNAc
# How it was run: as §1
# Kdn(a2-3)Gal(b1-3)GlcNAc = target: Kdn(a2-3)Gal(b1-3)GlcNAc
# How it was run: as §1
# Kdn(a2-3)Gal(b1-4)Glc = target: Kdn(a2-3)Gal(b1-4)Glc
# How it was run: as §1
# Kdn(a2-3)Gal(b1-4)GlcNAc = target: Kdn(a2-3)Gal(b1-4)GlcNAc
# How it was run: as §1
# [18] = target: Kdn(a2-3)Gal(b1-4)[Fuc(a1-3)]GlcNAc
# How it was run: as §1
# Kdn(a2-6)Gal(b1-4)GlcNAc = target: Kdn(a2-6)Gal(b1-4)GlcNAc
# How it was run: as §1
# [19] = target: Man(a1-2)Man(a1-2)Man(a1-3)Man
# How it was run: as §1
# [20] = target: Man(a1-2)Man(a1-2)Man(a1-6)[Man(a1-3)]Man
# How it was run: as §1
# Man(a1-2)Man(a1-3)Man = target: Man(a1-2)Man(a1-3)Man
# How it was run: as §1
binder,measurement,setting,value
B1,glycan array binding signal (z-score),[1],6.49
same,glycan array binding signal (z-score),[2],-1.17
same,glycan array binding signal (z-score),[3],0.345
same,glycan array binding signal (z-score),[4],0.246
same,glycan array binding signal (z-score),[5],-0.2
same,glycan array binding signal (z-score),[6],0.502
same,glycan array binding signal (z-score),[7],0.069
same,glycan array binding signal (z-score),GlcNAc(b1-3)GalNAc,-0.65
same,glycan array binding signal (z-score),GlcNAc(b1-3)Man,-0.614
same,glycan array binding signal (z-score),[8],2.83
same,glycan array binding signal (z-score),[9],-1.27
same,glycan array binding signal (z-score),[10],-0.578
same,glycan array binding signal (z-score),[11],-1
same,glycan array binding signal (z-score),GlcNAc(b1-4)GlcNAc,-0.502
same,glycan array binding signal (z-score),[12],-0.581
same,glycan array binding signal (z-score),[13],2.49
same,glycan array binding signal (z-score),[14],-0.877
same,glycan array binding signal (z-score),[15],-0.535
same,glycan array binding signal (z-score),[16],-0.135
same,glycan array binding signal (z-score),GlcNAc(b1-6)GalNAc,0.785
same,glycan array binding signal (z-score),[17],-0.516
same,glycan array binding signal (z-score),Kdn(a2-3)Gal(b1-3)GalNAc,0.318
same,glycan array binding signal (z-score),Kdn(a2-3)Gal(b1-3)GlcNAc,-0.653
same,glycan array binding signal (z-score),Kdn(a2-3)Gal(b1-4)Glc,1.85
same,glycan array binding signal (z-score),Kdn(a2-3)Gal(b1-4)GlcNAc,-0.43
same,glycan array binding signal (z-score),[18],-0.601
same,glycan array binding signal (z-score),Kdn(a2-6)Gal(b1-4)GlcNAc,1.21
same,glycan array binding signal (z-score),[19],-0.194
same,glycan array binding signal (z-score),[20],-0.273
same,glycan array binding signal (z-score),Man(a1-2)Man(a1-3)Man,-0.791

# Some of the entries above, reformatted:
binder | measurement | setting | value
B1 | glycan array binding signal (z-score) | [3] | 0.345
same | glycan array binding signal (z-score) | Kdn(a2-3)Gal(b1-4)Glc | 1.85
